According to paper PMC4667432:
Results are given in words; binding and its absence hold for the method and conditions named. Binding seen in cells or lysates may run through a third protein.

Molecular target: T1, Dishevelled-1 (Dvl1), endogenous in mature rat hippocampal neurons (rat (endogenous in hippocampal neurons)) (UniProt Q9WVB9)
T1 sequence: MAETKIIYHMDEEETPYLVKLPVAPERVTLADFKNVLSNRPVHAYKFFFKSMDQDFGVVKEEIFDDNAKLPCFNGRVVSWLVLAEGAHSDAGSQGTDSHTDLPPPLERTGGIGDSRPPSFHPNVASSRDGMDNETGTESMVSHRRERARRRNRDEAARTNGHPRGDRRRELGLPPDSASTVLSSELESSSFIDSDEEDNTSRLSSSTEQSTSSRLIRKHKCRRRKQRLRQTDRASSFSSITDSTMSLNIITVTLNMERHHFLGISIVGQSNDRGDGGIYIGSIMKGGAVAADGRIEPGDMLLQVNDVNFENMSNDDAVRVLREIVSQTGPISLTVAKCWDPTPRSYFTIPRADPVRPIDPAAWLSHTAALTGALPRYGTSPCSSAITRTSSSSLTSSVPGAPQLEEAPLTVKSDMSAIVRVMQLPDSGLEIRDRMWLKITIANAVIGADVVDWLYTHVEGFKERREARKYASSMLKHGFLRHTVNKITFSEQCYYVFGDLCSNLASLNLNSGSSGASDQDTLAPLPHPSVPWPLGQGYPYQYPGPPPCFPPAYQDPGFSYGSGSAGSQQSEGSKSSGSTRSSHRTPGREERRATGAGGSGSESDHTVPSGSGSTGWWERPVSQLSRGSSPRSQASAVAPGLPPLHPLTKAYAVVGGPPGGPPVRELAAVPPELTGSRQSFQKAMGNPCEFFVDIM
Assay: co-IP; endogenous proteins; mature high-density hippocampal cultures lysed in Triton buffer (50 mM Hepes-NaOH, 0.1 M NaCl, 4 mM EGTA, 2 mM MgCl2, 0.5% Triton X-100); Dvl1 monoclonal antibody and protein G-Sepharose overnight at 4 °C; western blot; also after treatment of the neurons with Wnt7a (more Syt-1 with Dvl1) or Sfrps (less)

Substance | binding
Complexin, endogenous in mature rat hippocampal neurons | no binding
Munc-18, endogenous in mature rat hippocampal neurons | no binding
